These are yes or no findings as the source states them, for the method shown.
Assays:
[1] = target: Recombinant GST-tagged TNIK kinase domain (human amino acids 1 to 367) (human) (UniProt Q9UKE5); assay: condition: only reducing SDS-PAGE after boiling with DTT; cross-linking; disulfide-linked species of purified GST-TNIK KD; oxidised in vitro with 50 uM H2O2 at 30°C for 15 min or without H2O2 (air oxidation); nonreducing (-DTT) or reducing (+DTT) SDS-PAGE and Western blotting; both purified
[2] = target: YFP-TNIK C202S (human) (UniProt Q9UKE5); assay: cross-linking; disulfide-linked species of YFP-TNIK immunoprecipitated from HEK293T lysate on GFP-Trap beads (washed with 500 mM NaCl); oxidised with 0, 0.2, 0.5 and 1 mM H2O2 at 30°C for 15 min; nonreducing SDS-PAGE and Western blotting; both purified

Sequences of proteins named here, by UniProt entry; tags and fusion partners are left off. A change or cut given only in a name is not applied to a line headed by its entry.
UniProt Q9UKE5: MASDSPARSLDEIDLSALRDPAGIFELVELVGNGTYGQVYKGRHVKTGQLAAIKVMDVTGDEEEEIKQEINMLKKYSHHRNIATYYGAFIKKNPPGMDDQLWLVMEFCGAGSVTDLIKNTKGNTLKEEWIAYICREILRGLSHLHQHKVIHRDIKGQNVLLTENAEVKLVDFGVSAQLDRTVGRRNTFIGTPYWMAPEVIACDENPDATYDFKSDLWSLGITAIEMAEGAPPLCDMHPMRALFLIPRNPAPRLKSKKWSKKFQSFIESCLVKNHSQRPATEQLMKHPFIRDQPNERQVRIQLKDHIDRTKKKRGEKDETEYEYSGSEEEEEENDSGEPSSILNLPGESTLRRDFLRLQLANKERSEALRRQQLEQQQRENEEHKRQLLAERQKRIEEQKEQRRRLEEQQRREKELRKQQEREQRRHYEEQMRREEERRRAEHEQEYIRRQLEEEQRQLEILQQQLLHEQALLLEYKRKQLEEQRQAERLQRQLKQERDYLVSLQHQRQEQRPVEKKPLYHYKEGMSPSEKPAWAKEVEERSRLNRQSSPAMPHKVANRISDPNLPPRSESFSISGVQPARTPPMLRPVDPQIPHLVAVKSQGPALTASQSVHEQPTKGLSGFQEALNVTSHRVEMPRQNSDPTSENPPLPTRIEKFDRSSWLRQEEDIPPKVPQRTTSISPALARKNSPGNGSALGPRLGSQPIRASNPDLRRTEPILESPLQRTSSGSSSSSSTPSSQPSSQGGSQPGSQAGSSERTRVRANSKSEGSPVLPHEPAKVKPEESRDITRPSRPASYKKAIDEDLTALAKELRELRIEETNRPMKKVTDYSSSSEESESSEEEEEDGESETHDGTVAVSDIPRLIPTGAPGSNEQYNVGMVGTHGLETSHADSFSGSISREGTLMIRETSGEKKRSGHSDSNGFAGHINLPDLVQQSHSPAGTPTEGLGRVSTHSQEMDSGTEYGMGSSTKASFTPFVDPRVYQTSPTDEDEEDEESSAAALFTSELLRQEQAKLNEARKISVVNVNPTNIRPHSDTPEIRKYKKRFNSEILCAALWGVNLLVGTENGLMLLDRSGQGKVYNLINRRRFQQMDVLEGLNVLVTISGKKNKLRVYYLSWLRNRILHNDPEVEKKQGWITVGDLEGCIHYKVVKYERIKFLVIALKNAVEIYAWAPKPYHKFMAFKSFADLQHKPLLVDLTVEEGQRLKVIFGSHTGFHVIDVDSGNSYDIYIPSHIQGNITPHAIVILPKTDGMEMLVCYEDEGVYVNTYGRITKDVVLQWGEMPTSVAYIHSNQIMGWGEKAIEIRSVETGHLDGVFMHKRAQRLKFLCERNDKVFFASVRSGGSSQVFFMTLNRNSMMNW

| binding [1] | binding [2] | Substance |
| --- | --- | --- |
| no binding |  | Recombinant GST-tagged TNIK kinase domain (human amino acids 1 to 367) (from UniProt Q9UKE5 1-367) (domain or fragment) |
|  | no binding | YFP-TNIK C202S (from UniProt Q9UKE5 1-1360) |

Source: paper PMC11661440
